Measurements reported in US10940159B2, “Combination immediate/delayed release delivery system for short half-life pharmaceuticals including remogliflozin” (priority 2010, dated 2021).
At least one compound was matched to its structure with a doubt left.

Assay: 12 week clinical studies in T2DM, once daily and twice daily dosing
Format: in vivo, human
Settings: 12 week studies; 250, 500 and 1000 mg QD and 50 mg through 1000 mg BID
From the text: To date, studies have assessed the efficacy, safety and tolerability up to 12 weeks, with varying efficacy so there is a need to characterize the profile of a number of selected formulated doses over a 12-week period. […] However to minimize the time which subjects may have sub-optimal glycemic control, the double blind study medication has been limited to 12 weeks duration. In addition, criteria have been included to allow the introduction of rescue therapy after 6 weeks for those subjects who have a high FP. […] Furthermore, there is evidence that at these doses, there may also be clinically relevant weight loss, a key requirement for new T2DM therapies (20). As doses above 250 mg BID may be associated with relatively small incremental benefits on glycemia and weight loss and there is a trend for better tolerability at lower doses, future studies could have total daily doses less than 500 mg per day. […] It is believed that the primary mechanism for this isolated increase in LDL-c is due a combination of 1) hemoconcentration as a result of the diurectic effect, similar to that seen with diuretics (21, 22) and 2) SGLT2 overnight inhibition. […] Further, a combination IR/SR dose given QD in the morning may also provide meaningful benefits on glycemia and weight loss. […]

Cc1c(Cc2ccc(OC(C)C)cc2)c(O[C@@H]2O[C@H](CO)[C@@H](O)[C@H](O)[C@H]2O)nn1C(C)C [remogliflozin]
glycemic control: Improvements in glycemic control
